At least one structure is not confirmed: it was looked up by name or label, or the drawing left a doubt. Peptide text beside a SMILES is read from it.
target: T1, HDAC5 protein (Homo sapiens, UniProt Q9UQL6); test: Biacore T200 binding affinity to immobilised HDAC5 protein; settings: CM5 chip, 1:1 binding model
T1 construct: purchased Abcam

By UniProt entry, the sequences of proteins in these tests, tags left out.
UniProt Q9UQL6, whole entry, species assumed: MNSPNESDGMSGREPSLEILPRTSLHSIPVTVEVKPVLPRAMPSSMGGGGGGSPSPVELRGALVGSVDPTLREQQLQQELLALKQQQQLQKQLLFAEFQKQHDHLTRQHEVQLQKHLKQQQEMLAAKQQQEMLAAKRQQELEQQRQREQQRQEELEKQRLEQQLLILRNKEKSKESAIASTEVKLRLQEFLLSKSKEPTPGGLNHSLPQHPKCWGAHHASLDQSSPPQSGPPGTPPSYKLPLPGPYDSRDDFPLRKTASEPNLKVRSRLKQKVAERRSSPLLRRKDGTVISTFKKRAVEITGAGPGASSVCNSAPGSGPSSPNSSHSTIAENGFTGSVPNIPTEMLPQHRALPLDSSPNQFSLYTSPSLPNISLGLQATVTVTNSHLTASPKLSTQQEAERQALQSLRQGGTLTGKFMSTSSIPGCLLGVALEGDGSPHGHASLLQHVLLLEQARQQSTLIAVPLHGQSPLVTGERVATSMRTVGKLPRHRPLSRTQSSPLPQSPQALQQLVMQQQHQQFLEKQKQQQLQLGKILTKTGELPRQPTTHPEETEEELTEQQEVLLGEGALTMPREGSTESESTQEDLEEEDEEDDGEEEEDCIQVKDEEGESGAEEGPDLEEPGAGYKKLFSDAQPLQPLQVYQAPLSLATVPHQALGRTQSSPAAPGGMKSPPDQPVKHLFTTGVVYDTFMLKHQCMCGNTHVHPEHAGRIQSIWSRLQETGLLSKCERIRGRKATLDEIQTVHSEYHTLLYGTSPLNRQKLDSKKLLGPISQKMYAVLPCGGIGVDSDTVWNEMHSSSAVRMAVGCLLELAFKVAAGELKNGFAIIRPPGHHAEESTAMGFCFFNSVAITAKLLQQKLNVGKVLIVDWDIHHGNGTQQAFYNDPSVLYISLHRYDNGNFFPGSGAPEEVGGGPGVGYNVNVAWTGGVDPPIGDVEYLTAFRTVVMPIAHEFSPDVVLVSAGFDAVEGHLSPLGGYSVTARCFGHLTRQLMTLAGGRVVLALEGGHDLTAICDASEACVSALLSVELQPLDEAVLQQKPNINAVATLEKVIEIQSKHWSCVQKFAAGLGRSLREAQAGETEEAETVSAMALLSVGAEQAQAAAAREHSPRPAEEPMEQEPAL

Compared with `CSCC[C@H](NC(=O)[C@H](CS)NC(=O)[C@H](CCCCN)NC(=O)[C@H](CCCNC(=N)N)NC(=O)CNC(=O)[C@H](CCCNC(=N)N)NC(=O)[C@@H](NC(=O)[C@H](CO)NC(=O)[C@H](CS)NC(=O)[C@H](CCCCN)NC(=O)CN)[C@@H](C)O)C(=O)N[C@@H](CCCNC(=N)N)C(=O)N[C@@H](CCCNC(=N)N)C(=O)N[C@@H](CCCCN)C(=O)N[C@@H](CCCCN)C(=O)O` [SEQ ID NO: 2] (H-GKCSTRGRKCMRRKK-OH; N-terminus and C-terminus assumed), `CSCC[C@H](NC(=O)[C@H](CCCCN)NC(=O)CN)C(=O)N[C@@H](CO)C(=O)N[C@H](C(=O)N[C@@H](CCCNC(=N)N)C(=O)NCC(=O)N[C@@H](CCCNC(=N)N)C(=O)N[C@@H](CCCCN)C(=O)N[C@@H](CS)C(=O)N[C@@H](CS)C(=O)N[C@@H](CCCNC(=N)N)C(=O)N[C@@H](CCCNC(=N)N)C(=O)N[C@@H](CCCCN)C(=O)N[C@@H](CCCCN)C(=O)O)[C@@H](C)O` [SEQ ID NO: 5] (H-GKMSTRGRKCCRRKK-OH; N-terminus and C-terminus assumed) is 2-fold lower in Kd: 924 nM for the first, 468 nM for the second.

`CSCC[C@H](NC(=O)[C@H](CCCCN)NC(=O)[C@H](CCCNC(=N)N)NC(=O)CNC(=O)[C@H](CCCNC(=N)N)NC(=O)[C@@H](NC(=O)[C@H](CO)NC(=O)[C@H](CS)NC(=O)[C@H](CCCCN)NC(=O)CN)[C@@H](C)O)C(=O)N[C@@H](CS)C(=O)N[C@@H](CCCNC(=N)N)C(=O)N[C@@H](CCCNC(=N)N)C(=O)N[C@@H](CCCCN)C(=O)N[C@@H](CCCCN)C(=O)O` [SEQ ID NO: 3] (H-GKCSTRGRKMCRRKK-OH; N-terminus and C-terminus assumed) and `C[C@@H](O)[C@H](NC(=O)[C@H](CO)NC(=O)[C@H](CS)NC(=O)[C@H](CCCCN)NC(=O)CN)C(=O)N[C@@H](CCCNC(=N)N)C(=O)NCC(=O)N[C@@H](CCCNC(=N)N)C(=O)N[C@@H](CCCCN)C(=O)N[C@@H](CS)C(=O)N[C@@H](CS)C(=O)N[C@@H](CCCNC(=N)N)C(=O)N[C@@H](CCCNC(=N)N)C(=O)N[C@@H](CCCCN)C(=O)N[C@@H](CCCCN)C(=O)O` [SEQ ID NO: 1] are within 1.5-fold of each other in Kd: 725 nM for the first, 676 nM for the second.
